Data taken from paper PMC11269292.
No constants are given. Whether binding was seen depends on the method and setting. Binding seen in cells or lysates may run through a third protein. Some binding calls cover weakened binding; strength is not graded here. Tags and fused reporters may be left off the sequences shown.

T1: ASGR1-3×Flag (asialoglycoprotein receptor 1, from pEF1a-ASGR1-3×Flag-IRES-GFP) (human) (UniProt P07306)
T1 sequence: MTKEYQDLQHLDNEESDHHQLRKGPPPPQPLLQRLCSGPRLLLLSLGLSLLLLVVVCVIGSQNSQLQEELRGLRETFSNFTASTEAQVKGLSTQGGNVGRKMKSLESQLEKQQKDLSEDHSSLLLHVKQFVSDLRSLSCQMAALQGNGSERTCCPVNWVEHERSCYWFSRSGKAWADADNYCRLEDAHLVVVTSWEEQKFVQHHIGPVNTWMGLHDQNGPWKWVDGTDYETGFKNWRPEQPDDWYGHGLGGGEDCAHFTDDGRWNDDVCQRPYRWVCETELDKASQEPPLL


Tests used:
[1] = target: PON2-3×HA (paraoxonase-2, from pEF1a-PON2-3×HA-SV40-Puro) (human (cDNA of HepG2 cells)) (UniProt Q15165); assay: co-IP; HEK293T co-transfected with ASGR1-3×Flag and candidate-3×HA; whole-cell extracts precipitated with anti-HA antibody (rabbit IgG as control) 12 h at 4°C, Protein A/G Agarose, five washes; western blot for Flag and HA
[2] = target: T1, ASGR1-3×Flag (asialoglycoprotein receptor 1, from pEF1a-ASGR1-3×Flag-IRES-GFP) (human); assay: co-IP; HEK293T co-transfected with HA-tagged PON2 (or its truncations) and Flag-tagged ASGR1; precipitated with Flag antibody (ASGR1 as bait); western blot for PON2 and ASGR1

binding [1]	binding [2]	Binder
binds	–	ASGR1-3×Flag (asialoglycoprotein receptor 1, from pEF1a-ASGR1-3×Flag-IRES-GFP) (receptor, UniProt P07306 1-291) MTKEYQDLQHLDNEESDHHQLRKGPPPPQPLLQRLCSGPRLLLLSLGLSLLLLVVVCVIGSQNSQLQEELRGLRETFSNFTASTEAQVKGLSTQGGNVGRKMKSLESQLEKQQKDLSEDHSSLLLHVKQFVSDLRSLSCQMAALQGNGSERTCCPVNWVEHERSCYWFSRSGKAWADADNYCRLEDAHLVVVTSWEEQKFVQHHIGPVNTWMGLHDQNGPWKWVDGTDYETGFKNWRPEQPDDWYGHGLGGGEDCAHFTDDGRWNDDVCQRPYRWVCETELDKASQEPPLL
–	binds	PON2 truncation PΔ2 (Δ123–231), HA-tagged (domain or fragment, UniProt Q15165) MGRLVAVGLLGIALALLGERLLALRNRLKASREVESVDLPHCHLIKGIEAGSEDIDILPNGLAFFSVGLKFPGLHSFAPDKPGGILMMDLKEEKPRARELRISRGFDLASFNPHGISTFIDNKYIYVADILAHEIHVLEKHTNMNLTQLKVLELDTLVDNLSIDPSSGDIWVGCHPNGQKLFVYDPNNPPSSEVLRIQNILSEKPTVTTVYANNGSVLQGSSVASVYDGKLLIGTLYHRALYCEL
–	binds	PON2 truncation PΔ3 (Δ232–354), HA-tagged (domain or fragment, UniProt Q15165 1-231) MGRLVAVGLLGIALALLGERLLALRNRLKASREVESVDLPHCHLIKGIEAGSEDIDILPNGLAFFSVGLKFPGLHSFAPDKPGGILMMDLKEEKPRARELRISRGFDLASFNPHGISTFIDNDDTVYLFVVNHPEFKNTVEIFKFEEAENSLLHLKTVKHELLPSVNDITAVGPAHFYATNDHYFSDPFLKYLETYLNLHWANVVYYSPNEVKVVAEGFDSANGINISPDD
